Data: patent US20110053835A1, “ANTIMICROBIAL PEPTIDES DERIVED FROM CAP18” (OctoPlus Sciences B.V., priority 2004, published 2011)
Not every detail of the peptide structures is certain; ends, links or a residue may be inferred.

Assays:
LPS = LPS neutralization, limulus amoebocyte lysate (LAL) assay; type: biochemical; conditions: ± SD
Procedure: The compounds prepared according to example 1 were tested for their capability to neutralize the bacterial toxin LPS with a limulus amoebocyte lysate (LAL) assay and with a whole blood (WB) assay. LTA neutralization was also measured with a whole blood assay. Peptide LL-37 was used as a positive control. The peptide concentration whereby 50% LPS is neutralized was used as a measure of the peptide's activity. These concentration values were as in table 1. The differences between the compounds within each assay were not statistically significant.

bacterial growth = test: Test for antimicrobial activity of unpreserved solution; type: cell-based; conditions: sterile filtered solution, compared with placebo solution

In the case of “Ac-IGKEFKRIVERIKRFLRELVRPLR-NH2 [Compound P60.4Ac]”, the “Compound concentration for 50% LPS-neutralization, LPS (LAL)” value (LPS) is reported as 1.8 ± 0.1 µg/mL and the “antimicrobial activity of solution without preservative” value (bacterial growth) is reported as “inhibit bacterial growth or even reduce the number of germs”.
